For 2 compounds, IC50 results are on record in patent US4731363A, “Thromboxane synthase inhibitors as insulin lowering agents and antiobesity agents” (priority 1986, dated 1988).

By UniProt entry, the sequences of proteins in these tests, tags left out.
UniProt H0UT36, entry or part of it: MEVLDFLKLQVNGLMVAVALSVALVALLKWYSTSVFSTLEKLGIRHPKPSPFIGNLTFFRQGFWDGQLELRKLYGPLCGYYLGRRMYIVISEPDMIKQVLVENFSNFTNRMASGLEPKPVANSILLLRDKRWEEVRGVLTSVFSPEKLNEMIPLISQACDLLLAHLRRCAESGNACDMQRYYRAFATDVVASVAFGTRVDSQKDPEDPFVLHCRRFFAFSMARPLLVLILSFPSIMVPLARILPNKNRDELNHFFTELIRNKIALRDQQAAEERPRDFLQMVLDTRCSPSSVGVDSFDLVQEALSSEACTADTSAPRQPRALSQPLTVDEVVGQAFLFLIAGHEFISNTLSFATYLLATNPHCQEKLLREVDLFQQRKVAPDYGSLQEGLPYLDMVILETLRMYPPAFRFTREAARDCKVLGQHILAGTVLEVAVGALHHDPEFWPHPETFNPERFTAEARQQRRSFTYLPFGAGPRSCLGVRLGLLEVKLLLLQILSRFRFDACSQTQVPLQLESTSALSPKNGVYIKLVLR

Molecules are shown by their SMILES. Where “and” joins values, the source holds several entries; their conditions need not be identical. Identical values can stand only once.

This assay addresses T1, thromboxane synthase (Guinea Pig Lung Microsomes) (Cavia porcellus, UniProt H0UT36).
T1 construct: The lungs were removed, freed of trachea and the majority of blood removed by rinsing the lungs with buffer; from tissue; host or cells: lungs of male guinea pigs (microsomes, 110,000 g pellet)
Nature of the assay: biochemical. As to conditions: enzyme source G = Guinea Pig Lung Microsomes. As for the experimental part:
In said assay procedure, microsomes from guinea pig lung or human platelets are added to an endoperoxide intermediate in prostaglandin biosynthesis and the inhibitor in phosphate buffer solution followed by incubation, extraction and determination of the extent of thromboxane synthase inhibition by TLC with radiochromatographic profile analysis. […]
Isolation of Guinea Pig Lung Microsomes
Four male guinea pigs (.congruent.500 g each) were sacrificed by spinal dislocation. The lungs were removed, freed of trachea and the majority of blood removed by rinsing the lungs with buffer (0.1M phosphate pH 7.5) via the pulmonary artery. The lung tissue (18.3 g total wet wt.), was then minced, suspended in three volumes of buffer and homogenized using, initially, a Brinkmann polytron homogenizer and, finally, a glass-teflon tissue grinder. The homogenate was centrifuged at 12,000 g for 1 hr. and the resultant supernatant recentrifuged at 110,000 g for 1 hr. […]
The extract was applied to an I.T.L.C., type SG, glass fiber sheet (Gelman Instrument Co., Ann Arbor, Mich.) and developed in isooctane; methyl ethyl ketone: acetic acid (100:19:1 or 100:9:1) (19). […] In certain cases, based on the radiochromatographic profile obtained, the sheets were cut, the appropriate regions placed in scintillation vials, 10 ml of LSC cocktail (Yorktown Research, S. Hackensack, NJ) added, and the relative cpm determined.

The compound `Clc1ccccc1C(c1ccccc1)(c1ccccc1)n1ccnc1` [1-[(2-chlorophenyl)diphenylmethyl]-1H--imidazole, reference compound] gave an IC50 of 10 to 100 µM.
The result for `Clc1ccc(COC(Cn2ccnc2)c2ccc(Cl)cc2Cl)c(Cl)c1` (centres unmarked) [1-[2-(2,4-dichlorophenyl)-2-[(2,4-dichlorophenyl)-methoxy]ethyl]-1H--imidazole, reference compound] reads > 100 µM and < 1000 µM.
